Source: PubChem BioAssay AID624291 (National Center for Advancing Translational Sciences (NCATS), 2012)
Out of some 350,000 compounds screened, about 220 (0.063%) were called active. The inconclusive results got no clear call from the source; some entries with a clear call stand among them for comparison. The call rests on the fitted dose curve; in most records, active means well fitted activation curve with a large enough effect; inconclusive means small, poorly fitted or top-dose-only effect; inactive means no such curve, though single readings can be large or run the other way. A potency beside an inconclusive call is a rough fit, not a confirmed value.
Potency means the concentration at half of the fitted maximal effect.

Assay: qHTS for Activators of Integrin-Mediated Alleviation for Muscular Dystrophy; further: nearly all actives have a fitted effect of over 60% in size
Details: alpha7betagal myoblasts, beta-gal FDG fluorescence, 48 h; series mostly up to 38.3 µM
In short: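 Alpha7betagal+/- myoblasts (passage 13) were plated 16-24 hr, then exposed to compounds (1:260 dilution of DMSO stock) for 48 hours at 37C. After MPER lysis, β-galactosidase reporter activity was read as FDG fluorescence (ex 480/em 540) after 30 minutes.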
With `C=CCc1ccccc1OCC(O)CN1CCN(Cc2ccc3c(c2)OCO3)CC1` (configuration not stated) the Potency was “inactive”. For `O=C(O)c1nc(N2CCOCC2)nc(N2CCOCC2)n1`, the Potency was inconclusive: 5.01 µM [activator, partial curve]. For `O=C(NCc1ccncc1)C1CCN(C(=O)c2cccc(Cl)c2)CC1`, the Potency was inconclusive: 28.2 µM [activator, single point]. In the case of `COc1cc(OC)c(C(=O)OCN2C(=O)c3ccccc3C2=O)cc1OC`, the Potency is reported as inconclusive: 2.82 µM [activator, single point]. With `CSc1nc(C)[nH]c(=O)c1C#N` the Potency was inconclusive: 28.2 µM [activator, single point]. In the case of `CCn1cc(Br)c(C(=O)NN)n1`, the Potency is reported as inconclusive: 11.2 µM [activator, single point]. With `Cc1csc(SCC(=O)Nc2cccc3nsnc23)n1` the Potency was inconclusive: 15.8 µM [activator, partial curve, poor fit]. In the case of `N#C/C(=C\Nc1ccc(Cl)cn1)S(=O)(=O)c1ccccc1`, the Potency is reported as “inactive”. In the case of `COc1ccccc1NS(=O)(=O)c1ccc(C(=O)NCCCN2CCOCC2)cc1`, the Potency is reported as “inactive”. With `CCOC(=O)c1ccc(N2CCOCC2)c(NS(=O)(=O)c2ccc(F)cc2)c1` the Potency was inconclusive: 4.47 µM [activator, partial curve]. In the case of `COc1ccc2c(c1)c1ncn(Cc3ccc(F)cc3)c(=O)c1n2C`, the Potency is reported as “inactive”. With `O=C(Nc1cccc(F)c1)Nc1ccc(Cl)cn1` the Potency was inconclusive: 15.8 µM [activator, partial curve]. With `COc1ccc(S(=O)(=O)NC2CCCCC2)cc1C` the Potency was inconclusive: 12.6 µM [activator, single point]. For `Cc1c(Cl)ccc2c(C(O)CBr)cc(-c3ccccc3)nc12` (configuration not stated), the Potency was “inactive”. In the case of `Cc1c(CCC(=O)NCC(=O)NCC(=O)O)c(=O)oc2cc3oc4c(c3cc12)CCCC4`, the Potency is reported as inconclusive: 0.501 µM [activator, full curve, poor fit]. With `CN(C)c1ccc(-c2nc3cc(N)ccc3o2)cc1` the Potency was “inactive”. In the case of `O=C(CCN1C(=O)C2C3C=CC(C4CC34)C2C1=O)Oc1ccccc1` (configuration not stated), the Potency is reported as inconclusive: 12.6 µM [activator, single point]. For `CC(C)NCCCCOc1ccc(Br)cc1Cl`, the Potency was “inactive”. In the case of `O=C(N/N=C/c1ccccn1)c1cc(Br)ccc1O`, the Potency is reported as inconclusive: 4.47 µM [activator, single point]. In the case of `CN1C(=CC=C2C=C(I)C(=O)C(I)=C2)C(C)(C)c2ccccc21`, the Potency is reported as “inactive”. With `O=C(Nc1cccc(F)c1)N(Cc1ccc(Cl)cc1)CC(O)C(F)(F)F` (configuration not stated) the Potency was “inactive”. For `CCOC(=O)N1CCN(C(=O)c2cc(-c3ccc(OCC)cc3)nc3ccccc23)CC1`, the Potency was “inactive”. In the case of `CN1C(=O)N(CC(=O)N2CCN(S(=O)(=O)c3ccc(Cl)s3)CC2)C(=O)C12CCCCC2`, the Potency is reported as inconclusive: 11.2 µM [activator, partial curve, poor fit]. In the case of `O=C(C1CCN(S(=O)(=O)c2cccs2)CC1)N1CCN(c2ccccc2)CC1`, the Potency is reported as inconclusive: 5.01 µM [activator, single point]. In the case of `CC(c1nc2ccccc2n1Cc1ccccc1)N1CCCCC1` (configuration not stated), the Potency is reported as inconclusive: 28.2 µM [activator, single point]. In the case of `O=C(CCNC(=O)N1CCn2c1nc1ccccc12)NCc1ccccc1Cl`, the Potency is reported as “inactive”. With `O=C(N/N=C1\CC2CC=CC12)c1ccccc1Cl` (configuration not stated) the Potency was inconclusive: 28.2 µM [activator, single point]. With `Cc1ccccc1N1C(=O)CC(Nc2ccc3c(c2)OCO3)C1=O` (configuration not stated) the Potency was inconclusive: 5.01 µM [activator, single point]. With `Cc1ccccc1NCc1ccccc1O` the Potency was “inactive”. In the case of `COc1ccc2c(C)c(CC(=O)N3CCN(C(=O)C4COc5ccccc5O4)CC3)c(=O)oc2c1C` (configuration not stated), the Potency is reported as “inactive”. In the case of `Cc1c(/C=N\NC(=O)C2COc3ccccc3O2)c2ccccc2n1C` (configuration not stated), the Potency is reported as “inactive”. In the case of `CC1CCCC(C)N1C(=O)COC(=O)C12CC3CC(CC(Cl)(C3)C1)C2` (configuration not stated), the Potency is reported as inconclusive: 1.41 µM [activator, partial curve, poor fit]. For `Cc1cccc(CN2CCC(CNC(=O)Nc3ccc(F)c(Cl)c3)CC2)c1`, the Potency was inconclusive: 11.2 µM [activator, partial curve, poor fit]. With `CC(C)(C)NC(=S)Nc1cccc(C(F)(F)F)c1` the Potency was “inactive”. For `CC(C)(C)OC(=O)N[C@@H](Cc1ccccc1)C(=O)NCC1CCC(C(=O)N[C@@H](CCC(N)=O)C(=O)O)CC1` (some centres not stated), the Potency was inconclusive: 3.98 µM [activator, partial curve, poor fit]. In the case of `O=C(O)Cn1nc2c3c(cccc3c1=O)-c1ccccc1-2`, the Potency is reported as inconclusive: 10 µM [activator, partial curve, poor fit]. In the case of `Cc1cc2oc(=O)cc(CN(C)Cc3ccccc3)c2cc1C(C)C`, the Potency is reported as “inactive”. With `O=C(CSc1n[nH]c(=O)n1Cc1ccco1)c1ccc(F)cc1` the Potency was inconclusive: 28.2 µM [activator, single point]. For `S=C1NC2=C(CCC/C2=C\c2ccccc2)C(c2ccccc2)N1` (configuration not stated), the Potency was “inactive”. With `Cc1cccn2c(=O)c(C(=O)NC3CCCCC3)c(O)nc12` the Potency was inconclusive: 12.6 µM [activator, single point]. For `CN1C(=O)N(c2nnc(C(C)(C)C)s2)C(=O)C1c1ccccc1` (configuration not stated), the Potency was inconclusive: 5.01 µM [activator, single point]. In the case of `COc1ccc(C2CC(c3ccc(F)cc3)n3nc(NC(=O)c4ccco4)nc3N2)cc1` (configuration not stated), the Potency is reported as “inactive”. For `O=C(/C=C/c1ccc(Cl)cc1Cl)c1ccc[nH]1`, the Potency was “inactive”. With `CCOc1ccc(NC(=O)CSc2ccc(-c3ccco3)nn2)cc1` the Potency was inconclusive: 1.26 µM [activator, partial curve, poor fit]. With `COc1cccc(NC(=O)CCNS(=O)(=O)c2ccc3c(c2)oc(=O)n3C)c1` the Potency was inconclusive: 28.2 µM [activator, single point]. For `CCOc1ccc(C(=O)Nc2cccc(-c3nc4cccnc4o3)c2)cc1Cl`, the Potency was inconclusive: 3.55 µM [activator, single point]. In the case of `CCn1c(COc2ccc(Cl)cc2)nnc1SCc1nc2ccccc2[nH]1`, the Potency is reported as inconclusive: 2.24 µM [activator, full curve, poor fit].
